Assay results reported in paper PMC8779298, “The Campylobacter jejuni Response Regulator and Cyclic-Di-GMP Binding CbrR Is a Novel Regulator of Flagellar Motility” (Microorganisms, 2021).
Where two headings read alike, the source gives them in different places.

System: T1, CbrR
T1 construct: gene CJJ81176_0671
Conditions: labelled compound (32P), 10 mM Tris pH 8.0, 5 mM MgCl2, 100 mM NaCl

| Structure (SMILES) | DRaCALA, nitrocellulose spot; competition with unlabelled nucleotides | DRaCALA, nitrocellulose spot; competition with unlabelled nucleotides (I-site) |
| --- | --- | --- |
| Nc1nc2c(ncn2[C@@H]2O[C@H](COP(=O)(O)OP(=O)(O)OP(=O)(O)O)[C@@H](O)[C@H]2O)c(=O)[nH]1 [GTP] | this assay indicated efficient binding of both GTP and c-di-GMP |  |
| Nc1nc2c(ncn2[C@@H]2O[C@@H]3COP(=O)(O)O[C@H]4[C@@H](O)[C@H](n5cnc6c(=O)[nH]c(N)nc65)O[C@@H]4COP(=O)(O)O[C@H]3[C@H]2O)c(=O)[nH]1 [c-di-GMP] |  | this assay indicated efficient binding of both GTP and c-di-GMP |
